According to PubChem BioAssay AID493014 (National Center for Advancing Translational Sciences (NCATS), 2011):
The other results are listed elsewhere or left out. Shown are side measurements of this screen, not its main read-out; they come without a call. The list favours compounds with an active or inconclusive main result. Potencies come from curve fits of mixed quality, noted in brackets.

Assay: qHTS Assay to Find Inhibitors of Chronic Active B-Cell Receptor Signaling
Details: ABC-DLBCL IkBa-CBG/CBR reporter, luminescence ratio (green luciferase fused to IkBa over red control in TMD8 lymphoma cells), 4 h
Summary of the method: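 TMD8 ABC-DLBCL cells carrying doxycycline-inducible green luciferase fused to IkappaBalpha plus unfused red luciferase were exposed to compounds (up to 46 uM) for 4 hrs at 37C. Activity came from the overlap-corrected green/red luminescence ratio.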

[1] = measured here: CBR red luminescence, cell number

Row | Compound | AC50 [1] | AC50 (measured here: IkBa-CBG green luminescence)
1 | Cc1nc2ccc(NC(=O)CS(=O)(=O)c3ccccc3)cc2s1 | 9.2 µM [falling, partial curve] | –
2 | O=C(O)CCC(=O)c1c[nH]c2ccccc12 | 0.58 µM [rising, full curve, poor fit] | –
3 | CC(Sc1cccc[n+]1[O-])C(=O)Nc1cc(Cl)c(Cl)cc1Cl (stereo not drawn) | 2.06 µM [rising, full curve] | –
4 | O=C(N/N=C/c1c[nH]c2ccccc12)c1[nH]c2ccc(Br)cc2c1-c1ccccc1 | 2.06 µM [rising, full curve] | –
5 | Nc1nc(Nc2ccccc2F)sc1C(=O)c1ccccc1 | 2.82 µM [falling, partial curve, poor fit] | –
6 | Cc1ccc2[nH]c(-c3ccccc3)cc(=O)c2c1 | – | 5.01 µM [falling, full curve]
7 | CCn1c(=NC(=O)C2COc3ccccc3O2)sc2c(OC)ccc(OC)c21 (stereo not drawn) | 35.5 µM [rising, single point] | –
8 | COC(=O)C1=C(C)NC2=C(C(=O)CCC2)C1c1cn(Cc2ccc(Br)cc2)nc1-c1ccccc1 (stereo not drawn) | 35.5 µM [falling, single point] | –
9 | CC(/C=C/c1ccccc1)=N/NC(=O)c1nc2nc(C)cc(C)n2n1 | 35.5 µM [rising, single point] | –
10 | CC(=O)c1ccc(-c2ccc(C(=O)N3CCCc4ccccc43)o2)cc1 | 20 µM [falling, single point] | –
11 | COc1ccccc1/C=C/C(=O)OCCN1CCOCC1 | 17.8 µM [falling, partial curve] | –
12 | CCCCCn1c(=N)c(S(=O)(=O)c2ccc(Br)cc2)cc2c(=O)n3cccc(C)c3nc21 | 11.2 µM [rising, single point] | –
13 | O=C(CNc1cccc2ccccc12)c1ccc([N+](=O)[O-])cc1 | 2.91 µM [falling, full curve, poor fit] | –
14 | O=[n+]1cc(-c2ccc(F)cc2)n([O-])c2c1CCC2 | 3.26 µM [rising, partial curve, poor fit] | –
15 | CCc1nnc(NC(=O)CS(=O)(=O)Cc2ccccc2)s1 | 31.6 µM [rising, single point] | –
16 | CCCCNC(=O)CSc1nc2cc3c(cc2c(=O)n1Cc1ccco1)OCO3 | 5.62 µM [falling, single point] | –
17 | COCCCNC(=O)C(=O)NC1CCCCCC1 | 23.1 µM [falling, single point] | –
18 | COc1ccc(CNC(=O)c2ccc3c(c2)N(Cc2ccccc2C)C(=O)c2ccccc2S3=O)cc1 (stereo not drawn) | 0.0891 µM [rising, full curve, poor fit] | –

3 compounds out of the list, sorted by count of non-hydrogen atoms, rising.
Row | Compound | AC50 [1] | AC50 (measured here: IkBa-CBG green luminescence)
5 | Nc1nc(Nc2ccccc2F)sc1C(=O)c1ccccc1 | 2.82 µM [falling, partial curve, poor fit] | –
7 | CCn1c(=NC(=O)C2COc3ccccc3O2)sc2c(OC)ccc(OC)c21 (stereo not drawn) | 35.5 µM [rising, single point] | –
8 | COC(=O)C1=C(C)NC2=C(C(=O)CCC2)C1c1cn(Cc2ccc(Br)cc2)nc1-c1ccccc1 (stereo not drawn) | 35.5 µM [falling, single point] | –
